Targets include RING2 (human) (UniProt Q99496); RING1 (human) (UniProt Q06587); CSK21 (human) (UniProt P68400); CSK22 (human) (UniProt P19784); ASXL2 (human) (UniProt Q76L83).
Common to all, as to assay: affinity purification with mass spectrometry
A further experiment concerns the target T1, DCAF7 (human) (UniProt P61962).
T1 sequence: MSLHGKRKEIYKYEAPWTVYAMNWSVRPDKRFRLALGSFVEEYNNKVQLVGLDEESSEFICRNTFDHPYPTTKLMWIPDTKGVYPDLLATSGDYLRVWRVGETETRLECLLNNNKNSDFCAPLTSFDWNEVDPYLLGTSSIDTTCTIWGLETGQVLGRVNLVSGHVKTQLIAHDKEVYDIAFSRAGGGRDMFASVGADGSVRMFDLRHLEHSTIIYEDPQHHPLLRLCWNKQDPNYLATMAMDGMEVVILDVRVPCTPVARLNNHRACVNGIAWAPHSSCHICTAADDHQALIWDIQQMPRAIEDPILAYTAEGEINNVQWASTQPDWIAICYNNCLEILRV

Amino acid sequences for entries named in this document (tags omitted).
UniProt Q99496: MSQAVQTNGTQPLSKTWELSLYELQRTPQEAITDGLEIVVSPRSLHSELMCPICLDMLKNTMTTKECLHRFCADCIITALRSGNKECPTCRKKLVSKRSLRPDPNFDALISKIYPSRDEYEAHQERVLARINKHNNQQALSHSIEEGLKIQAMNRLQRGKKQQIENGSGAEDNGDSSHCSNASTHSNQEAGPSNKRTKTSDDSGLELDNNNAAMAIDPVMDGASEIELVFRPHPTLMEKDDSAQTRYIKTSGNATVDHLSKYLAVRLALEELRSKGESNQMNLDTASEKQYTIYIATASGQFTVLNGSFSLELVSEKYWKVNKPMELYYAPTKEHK
UniProt Q06587: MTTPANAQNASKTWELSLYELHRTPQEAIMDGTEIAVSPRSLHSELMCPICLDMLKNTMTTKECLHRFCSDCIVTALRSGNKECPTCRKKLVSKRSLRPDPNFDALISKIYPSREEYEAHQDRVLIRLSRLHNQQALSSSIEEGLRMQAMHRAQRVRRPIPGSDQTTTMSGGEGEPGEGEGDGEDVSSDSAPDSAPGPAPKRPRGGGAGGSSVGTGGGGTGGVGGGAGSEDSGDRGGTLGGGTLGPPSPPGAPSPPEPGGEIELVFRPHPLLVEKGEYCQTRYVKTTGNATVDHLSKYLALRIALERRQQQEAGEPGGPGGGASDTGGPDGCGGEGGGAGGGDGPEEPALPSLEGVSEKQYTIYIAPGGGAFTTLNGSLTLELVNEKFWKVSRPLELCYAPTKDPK
UniProt P68400: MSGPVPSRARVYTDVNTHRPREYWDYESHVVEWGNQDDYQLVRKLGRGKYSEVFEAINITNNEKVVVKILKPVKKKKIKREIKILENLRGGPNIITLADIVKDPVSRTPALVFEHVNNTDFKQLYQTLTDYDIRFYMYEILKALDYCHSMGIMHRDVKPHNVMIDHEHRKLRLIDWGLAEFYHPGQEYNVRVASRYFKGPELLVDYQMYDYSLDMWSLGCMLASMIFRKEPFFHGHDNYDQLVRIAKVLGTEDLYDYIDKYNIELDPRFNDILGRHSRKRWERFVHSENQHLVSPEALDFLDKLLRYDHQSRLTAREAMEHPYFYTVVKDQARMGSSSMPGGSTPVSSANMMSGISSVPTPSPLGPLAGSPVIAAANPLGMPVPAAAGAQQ
UniProt Q76L83: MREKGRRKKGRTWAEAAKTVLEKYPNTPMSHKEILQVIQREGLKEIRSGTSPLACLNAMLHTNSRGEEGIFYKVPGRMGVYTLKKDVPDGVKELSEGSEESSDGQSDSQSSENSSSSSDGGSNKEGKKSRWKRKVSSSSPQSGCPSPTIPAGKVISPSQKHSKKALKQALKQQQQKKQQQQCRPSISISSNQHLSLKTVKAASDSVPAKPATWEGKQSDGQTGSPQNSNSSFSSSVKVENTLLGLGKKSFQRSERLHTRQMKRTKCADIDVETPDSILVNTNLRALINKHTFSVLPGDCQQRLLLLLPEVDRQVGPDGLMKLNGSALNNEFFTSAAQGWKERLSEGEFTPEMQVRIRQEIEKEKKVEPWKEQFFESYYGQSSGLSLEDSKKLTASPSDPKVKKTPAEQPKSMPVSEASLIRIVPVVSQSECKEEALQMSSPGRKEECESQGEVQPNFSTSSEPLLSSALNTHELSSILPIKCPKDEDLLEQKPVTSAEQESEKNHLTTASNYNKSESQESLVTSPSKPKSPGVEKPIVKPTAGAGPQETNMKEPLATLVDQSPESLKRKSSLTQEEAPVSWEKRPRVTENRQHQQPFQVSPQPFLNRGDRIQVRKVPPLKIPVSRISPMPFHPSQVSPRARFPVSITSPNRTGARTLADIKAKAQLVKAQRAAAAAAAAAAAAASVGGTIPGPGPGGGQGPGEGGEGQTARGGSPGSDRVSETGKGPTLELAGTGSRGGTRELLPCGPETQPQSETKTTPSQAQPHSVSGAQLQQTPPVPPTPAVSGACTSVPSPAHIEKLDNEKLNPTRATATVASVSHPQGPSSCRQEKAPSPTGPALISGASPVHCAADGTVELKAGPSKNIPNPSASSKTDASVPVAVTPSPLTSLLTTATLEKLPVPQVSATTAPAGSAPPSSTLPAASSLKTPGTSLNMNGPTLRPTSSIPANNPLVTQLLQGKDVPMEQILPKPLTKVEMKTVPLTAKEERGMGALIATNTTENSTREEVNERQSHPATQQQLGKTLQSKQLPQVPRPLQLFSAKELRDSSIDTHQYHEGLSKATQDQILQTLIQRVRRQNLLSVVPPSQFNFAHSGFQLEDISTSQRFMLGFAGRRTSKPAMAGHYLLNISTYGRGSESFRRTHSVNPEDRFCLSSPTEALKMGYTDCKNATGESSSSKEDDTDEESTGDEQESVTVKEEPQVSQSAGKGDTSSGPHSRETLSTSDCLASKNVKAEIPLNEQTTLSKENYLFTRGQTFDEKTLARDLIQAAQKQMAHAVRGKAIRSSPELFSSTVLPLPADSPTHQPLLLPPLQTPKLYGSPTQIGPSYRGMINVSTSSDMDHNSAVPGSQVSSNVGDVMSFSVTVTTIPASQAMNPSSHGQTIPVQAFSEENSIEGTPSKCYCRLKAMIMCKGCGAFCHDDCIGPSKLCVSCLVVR

In a further experiment the target is T2, YAF2 (human) (UniProt Q8IY57).
T2 sequence: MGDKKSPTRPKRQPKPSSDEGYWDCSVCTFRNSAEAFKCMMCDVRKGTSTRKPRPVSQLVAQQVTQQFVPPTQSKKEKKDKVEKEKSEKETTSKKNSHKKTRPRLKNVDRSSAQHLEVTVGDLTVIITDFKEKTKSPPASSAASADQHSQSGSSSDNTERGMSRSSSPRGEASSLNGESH

The next experiment deals with T3, RYBP (human) (UniProt Q8N488).
T3 sequence: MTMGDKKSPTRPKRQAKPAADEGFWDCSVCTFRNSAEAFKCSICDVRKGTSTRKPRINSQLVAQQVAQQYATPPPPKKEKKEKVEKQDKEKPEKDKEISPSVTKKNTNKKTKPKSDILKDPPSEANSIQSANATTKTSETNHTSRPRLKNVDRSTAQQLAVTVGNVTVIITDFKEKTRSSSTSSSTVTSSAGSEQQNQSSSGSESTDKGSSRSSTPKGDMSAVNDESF

A further experiment has as its target T4, OGT1 (human) (UniProt O15294).
T4 sequence: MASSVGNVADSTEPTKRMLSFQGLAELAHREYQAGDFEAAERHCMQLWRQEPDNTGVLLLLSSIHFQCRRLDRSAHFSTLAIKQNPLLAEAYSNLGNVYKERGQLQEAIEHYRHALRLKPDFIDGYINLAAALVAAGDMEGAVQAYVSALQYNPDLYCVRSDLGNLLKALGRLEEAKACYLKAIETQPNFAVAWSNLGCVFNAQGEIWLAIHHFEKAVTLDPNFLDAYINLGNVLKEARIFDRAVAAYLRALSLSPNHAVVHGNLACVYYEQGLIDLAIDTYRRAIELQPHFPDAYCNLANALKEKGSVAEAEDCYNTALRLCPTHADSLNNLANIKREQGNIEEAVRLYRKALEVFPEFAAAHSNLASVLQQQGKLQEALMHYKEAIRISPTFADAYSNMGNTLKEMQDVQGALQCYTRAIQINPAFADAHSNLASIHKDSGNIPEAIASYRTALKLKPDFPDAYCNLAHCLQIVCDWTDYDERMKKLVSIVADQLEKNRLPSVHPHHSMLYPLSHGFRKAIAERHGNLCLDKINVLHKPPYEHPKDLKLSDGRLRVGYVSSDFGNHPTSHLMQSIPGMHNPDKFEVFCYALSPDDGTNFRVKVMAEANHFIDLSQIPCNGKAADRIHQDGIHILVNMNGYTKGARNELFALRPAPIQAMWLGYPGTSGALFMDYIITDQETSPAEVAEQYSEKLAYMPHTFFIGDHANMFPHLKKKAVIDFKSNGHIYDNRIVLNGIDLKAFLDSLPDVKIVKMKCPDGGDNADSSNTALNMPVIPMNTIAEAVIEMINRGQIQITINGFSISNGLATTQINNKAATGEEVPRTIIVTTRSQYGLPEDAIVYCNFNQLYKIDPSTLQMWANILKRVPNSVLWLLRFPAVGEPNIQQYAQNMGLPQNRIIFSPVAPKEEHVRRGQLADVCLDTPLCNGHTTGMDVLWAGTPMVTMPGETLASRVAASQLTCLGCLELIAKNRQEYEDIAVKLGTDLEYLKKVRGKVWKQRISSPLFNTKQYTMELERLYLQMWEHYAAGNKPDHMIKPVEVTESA

In the next experiment the target is CBX5 (human), P45973. The note with it: remark: other sources report otherwise.

These are yes or no findings as the source states them, for the method shown. Binding seen in cells or lysates may run through a third protein. A yes stands for co-enrichment or nearness to the bait. Other partners may have been found. For some assays here: No binding means not detected with the bait.

B1: PCGF3 (protein, UniProt Q3KNV8 1-242)
chain: MLTRKIKLWDINAHITCRLCSGYLIDATTVTECLHTFCRSCLVKYLEENNTCPTCRIVIHQSHPLQYIGHDRTMQDIVYKLVPGLQEAEMRKQREFYHKLGMEVPGDIKGETCSAKQHLDSHRNGETKADDSSNKEAAEEKPEEDNDYHRSDEQVSICLECNSSKLRGLKRKWIRCSAQATVLHLKKFIAKKLNLSSFNELDILCNEEILGKDHTLKFVVVTRWRFKKAPLLLHYRPKMDLL
Consider B1, for which the binding result in the experiment with DCAF7 (human), with YAF2 (human), with RING2 (human), with RING1 (human), with CSK21 (human) and with RYBP (human) was “binds” in each case. Moreover, the binding result with CSK22 (human) is listed as “binds”.

B2: NCOAT (enzyme, UniProt O60502 1-916)
chain: MVQKESQATLEERESELSSNPAASAGASLEPPAAPAPGEDNPAGAGGAAVAGAAGGARRFLCGVVEGFYGRPWVMEQRKELFRRLQKWELNTYLYAPKDDYKHRMFWREMYSVEEAEQLMTLISAAREYEIEFIYAISPGLDITFSNPKEVSTLKRKLDQVSQFGCRSFALLFDDIDHNMCAADKEVFSSFAHAQVSITNEIYQYLGEPETFLFCPTEYCGTFCYPNVSQSPYLRTVGEKLLPGIEVLWTGPKVVSKEIPVESIEEVSKIIKRAPVIWDNIHANDYDQKRLFLGPYKGRSTELIPRLKGVLTNPNCEFEANYVAIHTLATWYKSNMNGVRKDVVMTDSEDSTVSIQIKLENEGSDEDIETDVLYSPQMALKLALTEWLQEFGVPHQYSSRQVAHSGAKASVVDGTPLVAAPSLNATTVVTTVYQEPIMSQGAALSGEPTTLTKEEEKKQPDEEPMDMVVEKQEETDHKNDNQILSEIVEAKMAEELKPMDTDKESIAESKSPEMSMQEDCISDIAPMQTDEQTNKEQFVPGPNEKPLYTAEPVTLEDLQLLADLFYLPYEHGPKGAQMLREFQWLRANSSVVSVNCKGKDSEKIEEWRSRAAKFEEMCGLVMGMFTRLSNCANRTILYDMYSYVWDIKSIMSMVKSFVQWLGCRSHSSAQFLIGDQEPWAFRGGLAGEFQRLLPIDGANDLFFQPPPLTPTSKVYTIRPYFPKDEASVYKICREMYDDGVGLPFQSQPDLIGDKLVGGLLSLSLDYCFVLEDEDGICGYALGTVDVTPFIKKCKISWIPFMQEKYTKPNGDKELSEAEKIMLSFHEEQEVLPETFLANFPSLIKMDIHKKVTDPSVAKSMMACLLSSLKANGSRGAFCEVRPDDKRILEFYSKLGCFEIAKMEGFPKDVVILGRSL
As for B2, the binding result in the experiment with OGT1 (human) is reported as “binds”.

B3: EHMT2, Q96KQ7 1-1210 (protein)
chain: MAAAAGAAAAAAAEGEAPAEMGALLLEKETRGATERVHGSLGDTPRSEETLPKATPDSLEPAGPSSPASVTVTVGDEGADTPVGATPLIGDESENLEGDGDLRGGRILLGHATKSFPSSPSKGGSCPSRAKMSMTGAGKSPPSVQSLAMRLLSMPGAQGAAAAGSEPPPATTSPEGQPKVHRARKTMSKPGNGQPPVPEKRPPEIQHFRMSDDVHSLGKVTSDLAKRRKLNSGGGLSEELGSARRSGEVTLTKGDPGSLEEWETVVGDDFSLYYDSYSVDERVDSDSKSEVEALTEQLSEEEEEEEEEEEEEEEEEEEEEEEEDEESGNQSDRSGSSGRRKAKKKWRKDSPWVKPSRKRRKREPPRAKEPRGVNGVGSSGPSEYMEVPLGSLELPSEGTLSPNHAGVSNDTSSLETERGFEELPLCSCRMEAPKIDRISERAGHKCMATESVDGELSGCNAAILKRETMRPSSRVALMVLCETHRARMVKHHCCPGCGYFCTAGTFLECHPDFRVAHRFHKACVSQLNGMVFCPHCGEDASEAQEVTIPRGDGVTPPAGTAAPAPPPLSQDVPGRADTSQPSARMRGHGEPRRPPCDPLADTIDSSGPSLTLPNGGCLSAVGLPLGPGREALEKALVIQESERRKKLRFHPRQLYLSVKQGELQKVILMLLDNLDPNFQSDQQSKRTPLHAAAQKGSVEICHVLLQAGANINAVDKQQRTPLMEAVVNNHLEVARYMVQRGGCVYSKEEDGSTCLHHAAKIGNLEMVSLLLSTGQVDVNAQDSGGWTPIIWAAEHKHIEVIRMLLTRGADVTLTDNEENICLHWASFTGSAAIAEVLLNARCDLHAVNYHGDTPLHIAARESYHDCVLLFLSRGANPELRNKEGDTAWDLTPERSDVWFALQLNRKLRLGVGNRAIRTEKIICRDVARGYENVPIPCVNGVDGEPCPEDYKYISENCETSTMNIDRNITHLQHCTCVDDCSSSNCLCGQLSIRCWYDKDGRLLQEFNKIEPPLIFECNQACSCWRNCKNRVVQSGIKVRLQLYRTAKMGWGVRALQTIPQGTFICEYVGELISDAEADVREDDSYLFDLDNKDGEVYCIDARYYGNISRFINHLCDPNIIPVRVFMLHQDLRFPRIAFFSSRDIRTGEELGFDYGDRFWDIKSKYFTCQCGSEKCKHSAEAIALEQSRLARLDPHPELLPELGSLPPVNT
Regarding B3, the binding result with CBX5 (human), P45973 is “no binding”.

B4: MBD6 (protein, UniProt Q96DN6 1-1003)
chain: MNGGNESSGADRAGGPVATSVPIGWQRCVREGAVLYISPSGTELSSLEQTRSYLLSDGTCKCGLECPLNVPKVFNFDPLAPVTPGGAGVGPASEEDMTKLCNHRRKAVAMATLYRSMETTCSHSSPGEGASPQMFHTVSPGPPSARPPCRVPPTTPLNGGPGSLPPEPPSVSQAFPTLAGPGGLFPPRLADPVPSGGSSSPRFLPRGNAPSPAPPPPPAISLNAPSYNWGAALRSSLVPSDLGSPPAPHASSSPPSDPPLFHCSDALTPPPLPPSNNLPAHPGPASQPPVSSATMHLPLVLGPLGGAPTVEGPGAPPFLASSLLSAAAKAQHPPLPPPSTLQGRRPRAQAPSASHSSSLRPSQRRPRRPPTVFRLLEGRGPQTPRRSRPRAPAPVPQPFSLPEPSQPILPSVLSLLGLPTPGPSHSDGSFNLLGSDAHLPPPPTLSSGSPPQPRHPIQPSLPGTTSGSLSSVPGAPAPPAASKAPVVPSPVLQSPSEGLGMGAGPACPLPPLAGGEAFPFPSPEQGLALSGAGFPGMLGALPLPLSLGQPPPSPLLNHSLFGVLTGGGGQPPPEPLLPPPGGPGPPLAPGEPEGPSLLVASLLPPPPSDLLPPPSAPPSNLLASFLPLLALGPTAGDGEGSAEGAGGPSGEPFSGLGDLSPLLFPPLSAPPTLIALNSALLAATLDPPSGTPPQPCVLSAPQPGPPTSSVTTATTDPGASSLGKAPSNSGRPPQLLSPLLGASLLGDLSSLTSSPGALPSLLQPPGPLLSGQLGLQLLPGGGAPPPLSEASSPLACLLQSLQIPPEQPEAPCLPPESPASALEPEPARPPLSALAPPHGSPDPPVPELLTGRGSGKRGRRGGGGLRGINGEARPARGRKPGSRREPGRLALKWGTRGGFNGQMERSPRRTHHWQHNGELAEGGAEPKDPPPPGPHSEDLKVPPGVVRKSRRGRRRKYNPTRNSNSSRQDITLEPSPTARAAVPLPPRARPGRPAKNKRRKLAP
On to B4, for which the binding result was “binds” with ASXL2 (human) and “no binding” in the experiment with OGT1 (human).

The values are drawn from paper doi:10.1101/059964.
